Measurements reported in PubChem BioAssay AID1508597 (Cure First, 2020)
Here is an unselected part of about 2,100 reagents. 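Calls flag viability under 80% in either arm, not effects specific to rucaparib; the reference for percent is not stated.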 No sequences are given here. The record does not give: the 100% reference.

Screen: 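Survival screen with siRNA in ovarian cancer cells derived from patients, with or without rucaparib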 (primary screen)
Cells: human ovarian carcinoma lines grown from tumours: OCI-P5x (papillary serous) and OCI-C5x (clear cell)
Knock-down reagent: siRNA pool against human genes, 1.25 pmol siRNA per well
Timing: 72 h or 96 h, depending on the cell culture
Challenge: rucaparib 20 µM (about IC30) or vehicle, present until read-out
Measurement: 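ATP luminescence measured at 72 or 96 h according to the culture, then normalised and expressed as percent viability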
Direction: viability, normalised: higher = more viable cells remaining
Hit rule: 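a well counts as a hit if its normalised viability is under 80 percent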
Calls: active = viability under 80%; inactive = viability 80% or more

Gene | PubChem SID | rucaparib or vehicle | cell line | technical replicate | viability, normalised (%) | Outcome
NRXN1 (GeneID 9378) | SID405527092 | Rucaparib | OCI-C5x (clear cell) | 1 | 62 | active
NRXN1 (GeneID 9378) | SID405527092 | Rucaparib | OCI-C5x (clear cell) | 2 | 54.4 | active
NRXN1 (GeneID 9378) | SID405527092 | Rucaparib | OCI-C5x (clear cell) | 3 | 46.5 | active
NRXN1 (GeneID 9378) | SID405527092 | Rucaparib | OCI-P5x (serous) | 1 | 44.7 | active
NRXN1 (GeneID 9378) | SID405527092 | Rucaparib | OCI-P5x (serous) | 2 | 52.8 | active
NRXN1 (GeneID 9378) | SID405527092 | Rucaparib | OCI-P5x (serous) | 3 | 47.3 | active
NRXN1 (GeneID 9378) | SID405527092 | Vehicle | OCI-C5x (clear cell) | 1 | 43 | active
NRXN1 (GeneID 9378) | SID405527092 | Vehicle | OCI-C5x (clear cell) | 2 | 38.2 | active
NRXN1 (GeneID 9378) | SID405527092 | Vehicle | OCI-C5x (clear cell) | 3 | 47.6 | active
NRXN1 (GeneID 9378) | SID405527092 | Vehicle | OCI-P5x (serous) | 1 | 65.1 | active
NRXN1 (GeneID 9378) | SID405527092 | Vehicle | OCI-P5x (serous) | 2 | 62.5 | active
NRXN1 (GeneID 9378) | SID405527092 | Vehicle | OCI-P5x (serous) | 3 | 92 | inactive
SRMS (GeneID 6725) | SID405527500 | Rucaparib | OCI-C5x (clear cell) | 1 | 43.4 | active
SRMS (GeneID 6725) | SID405527500 | Rucaparib | OCI-C5x (clear cell) | 2 | 68.1 | active
SRMS (GeneID 6725) | SID405527500 | Rucaparib | OCI-C5x (clear cell) | 3 | 50.5 | active
SRMS (GeneID 6725) | SID405527500 | Rucaparib | OCI-P5x (serous) | 1 | 87 | inactive
SRMS (GeneID 6725) | SID405527500 | Rucaparib | OCI-P5x (serous) | 2 | 117 | inactive
SRMS (GeneID 6725) | SID405527500 | Rucaparib | OCI-P5x (serous) | 3 | 93.7 | inactive
SRMS (GeneID 6725) | SID405527500 | Vehicle | OCI-C5x (clear cell) | 1 | 66.3 | active
SRMS (GeneID 6725) | SID405527500 | Vehicle | OCI-C5x (clear cell) | 2 | 59.8 | active
SRMS (GeneID 6725) | SID405527500 | Vehicle | OCI-C5x (clear cell) | 3 | 67.8 | active
SRMS (GeneID 6725) | SID405527500 | Vehicle | OCI-P5x (serous) | 1 | 102 | inactive
SRMS (GeneID 6725) | SID405527500 | Vehicle | OCI-P5x (serous) | 2 | 99.4 | inactive
SRMS (GeneID 6725) | SID405527500 | Vehicle | OCI-P5x (serous) | 3 | 117 | inactive
RCOR3 (GeneID 55758) | SID405527241 | Rucaparib | OCI-C5x (clear cell) | 1 | 65.6 | active
RCOR3 (GeneID 55758) | SID405527241 | Rucaparib | OCI-C5x (clear cell) | 2 | 51.4 | active
RCOR3 (GeneID 55758) | SID405527241 | Rucaparib | OCI-C5x (clear cell) | 3 | 57.1 | active
RCOR3 (GeneID 55758) | SID405527241 | Rucaparib | OCI-P5x (serous) | 1 | 64.3 | active
RCOR3 (GeneID 55758) | SID405527241 | Rucaparib | OCI-P5x (serous) | 2 | 59 | active
RCOR3 (GeneID 55758) | SID405527241 | Rucaparib | OCI-P5x (serous) | 3 | 66.4 | active
RCOR3 (GeneID 55758) | SID405527241 | Vehicle | OCI-C5x (clear cell) | 1 | 60.2 | active
RCOR3 (GeneID 55758) | SID405527241 | Vehicle | OCI-C5x (clear cell) | 2 | 59.7 | active
RCOR3 (GeneID 55758) | SID405527241 | Vehicle | OCI-C5x (clear cell) | 3 | 64.5 | active
RCOR3 (GeneID 55758) | SID405527241 | Vehicle | OCI-P5x (serous) | 1 | 77.8 | active
RCOR3 (GeneID 55758) | SID405527241 | Vehicle | OCI-P5x (serous) | 2 | 80.7 | inactive
RCOR3 (GeneID 55758) | SID405527241 | Vehicle | OCI-P5x (serous) | 3 | 125 | inactive
WRNIP1 (GeneID 56897) | SID405528338 | Rucaparib | OCI-C5x (clear cell) | 1 | 42 | active
WRNIP1 (GeneID 56897) | SID405528338 | Rucaparib | OCI-C5x (clear cell) | 2 | 55.9 | active
WRNIP1 (GeneID 56897) | SID405528338 | Rucaparib | OCI-C5x (clear cell) | 3 | 42.8 | active
WRNIP1 (GeneID 56897) | SID405528338 | Rucaparib | OCI-P5x (serous) | 1 | 89.7 | inactive
WRNIP1 (GeneID 56897) | SID405528338 | Rucaparib | OCI-P5x (serous) | 2 | 75.6 | active
WRNIP1 (GeneID 56897) | SID405528338 | Rucaparib | OCI-P5x (serous) | 3 | 64.5 | active
WRNIP1 (GeneID 56897) | SID405528338 | Vehicle | OCI-C5x (clear cell) | 1 | 42.4 | active
WRNIP1 (GeneID 56897) | SID405528338 | Vehicle | OCI-C5x (clear cell) | 2 | 52.7 | active
WRNIP1 (GeneID 56897) | SID405528338 | Vehicle | OCI-C5x (clear cell) | 3 | 43 | active
WRNIP1 (GeneID 56897) | SID405528338 | Vehicle | OCI-P5x (serous) | 1 | 105 | inactive
WRNIP1 (GeneID 56897) | SID405528338 | Vehicle | OCI-P5x (serous) | 2 | 90.8 | inactive
WRNIP1 (GeneID 56897) | SID405528338 | Vehicle | OCI-P5x (serous) | 3 | 63.6 | active
TDRD7 (GeneID 23424) | SID405526547 | Rucaparib | OCI-C5x (clear cell) | 1 | 62.4 | active
TDRD7 (GeneID 23424) | SID405526547 | Rucaparib | OCI-C5x (clear cell) | 2 | 46.6 | active
TDRD7 (GeneID 23424) | SID405526547 | Rucaparib | OCI-C5x (clear cell) | 3 | 37.1 | active
TDRD7 (GeneID 23424) | SID405526547 | Rucaparib | OCI-P5x (serous) | 1 | 58.7 | active
TDRD7 (GeneID 23424) | SID405526547 | Rucaparib | OCI-P5x (serous) | 2 | 57.7 | active
TDRD7 (GeneID 23424) | SID405526547 | Rucaparib | OCI-P5x (serous) | 3 | 46.8 | active
TDRD7 (GeneID 23424) | SID405526547 | Vehicle | OCI-C5x (clear cell) | 1 | 48.2 | active
TDRD7 (GeneID 23424) | SID405526547 | Vehicle | OCI-C5x (clear cell) | 2 | 43.4 | active
TDRD7 (GeneID 23424) | SID405526547 | Vehicle | OCI-C5x (clear cell) | 3 | 46.6 | active
TDRD7 (GeneID 23424) | SID405526547 | Vehicle | OCI-P5x (serous) | 1 | 57.3 | active
TDRD7 (GeneID 23424) | SID405526547 | Vehicle | OCI-P5x (serous) | 2 | 82.6 | inactive
TDRD7 (GeneID 23424) | SID405526547 | Vehicle | OCI-P5x (serous) | 3 | 91.5 | inactive
